Results deposited as PubChem BioAssay AID743454 (Peter MacCallum Cancer Centre, 2014).

Aim: 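Genes whose loss kills vorinostat-resistant colon cancer cells under vorinostat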 (primary screen)
System: human HCT116-VR colon cancer cells, selected for vorinostat resistance
Reagents: siRNA pool against human genes, 40 nM siRNA pool
Duration: vorinostat for 24 h, read-out about 72 h after transfection
Treatment: vorinostat at 2.5 µM final
Read-out: 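Cell viability by CellTiter-Fluor and caspase 3/7 activity by luminescence, each scaled to mock wells per plate, duplicates averaged, then robust z-scored over all plates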
Scale: viability robust z-score: higher = more viable cells than screen typical; caspase robust z-score: higher = more caspase 3/7 activity than screen typical
Active means: 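Hits are knock-downs in viability class RV1/RV2 or caspase class CA1/CA2, excluding ones that killed cells in the no-drug cell-count arm; hits then retested with single siRNAs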
Here is one part, drawn at random, of about 18,000 reagents tested. In the full data, 450 (2.5%) were called active. 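Single biological run; no consistent viability z cut-off exists, so the class columns, not z-scores, define the calls.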 Unmarked entries are inactive. Reagent sequences are not shown.

Gene	viability hit class	caspase hit class	viability robust z-score	caspase robust z-score
CD2AP	no change	no change	0.64	-0.34
WIPI2	no change	no change	0.16	-0.73
LINC02145	no change	no change	-0.16	0.5
OTUD5	no change	no change	-1.04	1.86
PIP5KL1	no change	no change	0.34	-0.34
LOC90462 (retired record)	no change	no change	-1.34	-0.84
GPX8	no change	no change	1.21	-0.74
WWC3	no change	no change	1.42	-0.7
SACK1G	no change	no change	0.06	-0.24
ZBTB17	no change	no change	-1.16	1.14
AMELX	no change	no change	1.1	0.02
CDC40	no change	no change	-2.34	-1.2
MAP1LC3B	no change	no change	0.15	-0.48
CDHR4	no change	no change	-2.29	1.18
NMNAT3	no change	no change	-2.88	1.61
ZPLD1	no change	no change	-0.71	-0.97
RAB9B	no change	no change	-0.7	0.57
NUDT16L1	no change	no change	-0.62	-0.56
CTSF	no change	no change	0.38	1.47
MARCHF1	no change	no change	0.63	0.34
WFS1	no change	no change	-0.45	0.3
PAPSS1	no change	no change	0.77	-0.34
UPP2	no change	no change	1.34	0.34
CFHR4	no change	no change	0.32	0.38
FANK1	no change	no change	-1.23	0.16
SLX4IP	no change	no change	-0.22	-0.92
USP20	no change	no change	0.26	-0.06
MAN2A2	no change	no change	0.49	-0.56
COPS3	no change	no change	-0.94	0.16
WSCD2	no change	no change	-0.06	-0.16
ACAD10	no change	no change	-1.12	0.53
SOX14	no change	no change	-2.38	0.55
ARF5	no change	no change	-1.25	3.42
PLCB3	no change	no change	1.56	-0.66
GNL3	no change	no change	-1.42	0.26
DCHS1	no change	no change	-1.04	1.53
TEKT4	no change	no change	-0.11	3.57
ASF1B	no change	no change	-0.46	-0.67
PFKM	no change	no change	-0.94	-0.72
VCPIP1	no change	no change	-0.42	-0.84
HOOK1	no change	no change	1.57	0.32
TAFAZZIN	no change	no change	0.65	-0.23
EAPP	no change	no change	1.25	-0.86
PCDHA9	no change	no change	-1.83	4.04
TBC1D32	no change	no change	0.56	0.18
MAPK4	no change	no change	-0.72	2.35
GPD1L	no change	no change	0.18	0.44
KLK1	no change	no change	-0.16	1.25
TSLIG3C	no change	no change	-0.63	3.08
FAM131B	no change	no change	0.66	-0.63
TRIM49C	no change	no change	0.94	-0.52
SIK3	no change	no change	0.64	0.34
NMBR	no change	no change	-0.19	-0.86
DUSP2	no change	no change	0.21	-0.68
ARHGAP45	no change	no change	0.96	-0.13
PARD6B	no change	no change	0.88	-0.36
LINC03124	no change	no change	-1.56	0.94

Laid out differently: entries from further up
{"Gene": "RAB9B", "viability hit class": "no change", "caspase hit class": "no change", "viability robust z-score": -0.7, "caspase robust z-score": 0.57}
{"Gene": "NUDT16L1", "viability hit class": "no change", "caspase hit class": "no change", "viability robust z-score": -0.62, "caspase robust z-score": -0.56}
{"Gene": "CTSF", "viability hit class": "no change", "caspase hit class": "no change", "viability robust z-score": 0.38, "caspase robust z-score": 1.47}
{"Gene": "MARCHF1", "viability hit class": "no change", "caspase hit class": "no change", "viability robust z-score": 0.63, "caspase robust z-score": 0.34}
{"Gene": "WFS1", "viability hit class": "no change", "caspase hit class": "no change", "viability robust z-score": -0.45, "caspase robust z-score": 0.3}
{"Gene": "PAPSS1", "viability hit class": "no change", "caspase hit class": "no change", "viability robust z-score": 0.77, "caspase robust z-score": -0.34}
